Test system: Brain-derived neurotrophic factor (BDNF)
Assay: Neurotrophic factors: BDNF in serum
Type: in vivo, Swiss albino mice

Structure (SMILES): COc1cc2c(cc1OC)C(=O)C(CC1CCN(Cc3ccccc3)CC1)C2 (stereo not shown) [Group 3, Donepezil]
- BDNF in Serum (Average of 6 animals): 19.85 ng/mL
- BDNF in Serum (animal 1): 18.10 ng/mL
- BDNF in Serum (animal 2): 19.00 ng/mL
- BDNF in Serum (animal 3): 21.50 ng/mL
- BDNF in Serum (animal 4): 20.00 ng/mL
- BDNF in Serum (animal 5): 22.00 ng/mL
- BDNF in Serum (animal 6): 18.50 ng/mL

— patent US12336972B2, “Synergistic nutritional compositions for treating neurocognitive disorders” (CELAGENEX RESEARCH (INDIA) PVT. LTD., priority 2021, dated 2025)
